# Measured values: paper PMC7819943, “Rice protein-binding microarrays: a tool to detect cis-acting elements near promoter regions in rice”
# Protein sequences, listed by entry. Tags and fused reporters are not part of them.
# UniProt Q0JBA9, entry or part of it: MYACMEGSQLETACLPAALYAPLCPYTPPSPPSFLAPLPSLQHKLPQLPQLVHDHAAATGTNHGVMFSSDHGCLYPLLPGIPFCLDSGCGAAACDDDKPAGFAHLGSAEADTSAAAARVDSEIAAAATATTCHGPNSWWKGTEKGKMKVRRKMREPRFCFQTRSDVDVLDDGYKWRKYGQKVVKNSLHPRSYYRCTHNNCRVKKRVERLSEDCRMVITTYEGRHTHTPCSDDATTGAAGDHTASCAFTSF
# Some of the results follow.
# Target: OsWRKY34 (Oryza sativa, UniProt Q0JBA9 1-250)
# Test: protein-binding microarray (RPBM); PBS, 2% BSA, 51.3 ng/ul salmon testes DNA, 50 uM zinc acetate, 200 nM TF, 25 C, 1 h; high values mean tight binding
# Conditions: protein: recombinant; tags: N-terminal polyhistidine and DsRed monomer fusion (pET32a); label: CyDye5-dUTP incorporated in the synthesized complementary strand; 3' TTTTT single-stranded linker to array surface; dsDNA, one strand shown
# Outline: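 A custom Agilent array was converted to double-stranded form by primer extension with Cy5-dUTP and blocked with 2% BSA. Protein at 200 nM in PBS with 2% BSA, salmon testes DNA and 50 µM zinc acetate was applied for 1 h at 25 °C, followed by washing. The proteins were polyhistidine–DsRed N-terminal fusions of transcription factors, expressed in E. coli BL21-CodonPlus and Ni–NTA-purified. The binding signal is per-feature fluorescence intensity (arbitrary units) from an Axon 4000B scanner.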
row,Sequence,binding signal
1,CGTGACATGAGGGACCATATGGTGGGGTGGGCCCACGCGTCGGAGTCACCTAGTGCAG,8090 fluorescence intensity (a.u.)
2,TAGAGTTTGCAATTCTTGGGGTCTTATATTGCTTTTGGTTCGGAGTCACCTAGTGCAG,9820 fluorescence intensity (a.u.)
3,TCACCCCTCAGCTTTCACCCGCGCCGCCTTTTCCACCACCCGGAGTCACCTAGTGCAG,8420 fluorescence intensity (a.u.)
4,TTTGTTTTTTAATAGATGACGCTGTTGACTTTTTCTCACGCGGAGTCACCTAGTGCAG,14200 fluorescence intensity (a.u.)
5,TTTTTCTTTCTTCCCAGACTTTTTCTCCAAGTTCAACTCCCGGAGTCACCTAGTGCAG,8040 fluorescence intensity (a.u.)
6,GAGAGTCGGGGTGGGGCTGCAGTGCGCGACGATGTCCGAGCGGAGTCACCTAGTGCAG,8860 fluorescence intensity (a.u.)
7,CCCTCGCCGCCGCCGCCACCGCCGCCTATGCCGCCGCCGCCGGAGTCACCTAGTGCAG,8130 fluorescence intensity (a.u.)
8,TCTTCAACACCATTGGTCATAGTTGTCGTCGCTTCAACCGCGGAGTCACCTAGTGCAG,8460 fluorescence intensity (a.u.)
9,CACTTTGTTCTTTTATGATGTTTTATTTTGTTATTTTGGACGGAGTCACCTAGTGCAG,8210 fluorescence intensity (a.u.)
10,CTTTGCAGCTCGCGACTTTGCAATTGCATGCCTTTACTTTCGGAGTCACCTAGTGCAG,10200 fluorescence intensity (a.u.)
11,CCCACTTCTCTCTCAATCTCTCTCTCTGCTAGGGTTTATCCGGAGTCACCTAGTGCAG,9900 fluorescence intensity (a.u.)
12,CCCCGTCCACAGCCACGCCGCCGAGCCATGCTGTGCATCTCGGAGTCACCTAGTGCAG,8080 fluorescence intensity (a.u.)
13,TGGTTAGGCCAGTAATCAGTACTCCGTTATATCATCGACCCGGAGTCACCTAGTGCAG,9300 fluorescence intensity (a.u.)
14,TCTCCTCCTACGTTCTACTGGACTTGTGCTGCGAGGGGAGCGGAGTCACCTAGTGCAG,9790 fluorescence intensity (a.u.)
15,TTCTGACAATCCGACAAGCTGCCCGTGCTCTACTTGCAATCGGAGTCACCTAGTGCAG,8500 fluorescence intensity (a.u.)
16,CTTGGGCCTGGGTTGGACACGCGCTTCCTCTCCCAATTTGCGGAGTCACCTAGTGCAG,9260 fluorescence intensity (a.u.)
17,CTTTGTTCAAACGAGGTTTGGACTGTTGTGGTTCATTAAACGGAGTCACCTAGTGCAG,10000 fluorescence intensity (a.u.)
18,TTCCGTTTCTGTTCCGTTTGGTTTTTCCTTGTTCTTTCGGCGGAGTCACCTAGTGCAG,12900 fluorescence intensity (a.u.)
19,CAATATCCATCGTGCACTGACGAAACCAGCTGCATTCTGCCGGAGTCACCTAGTGCAG,11100 fluorescence intensity (a.u.)
20,ATTTCTTGAACAGTTAAATACTTATAAATCCTTCACTTTTCGGAGTCACCTAGTGCAG,8050 fluorescence intensity (a.u.)
21,CTATTTACACGGTCATATAGAGTTTTGGATCCATCATCATCGGAGTCACCTAGTGCAG,8370 fluorescence intensity (a.u.)
22,GTTTATGACCAGTCAATTTCGTGCCTGTTTTTTTTTTTTTCGGAGTCACCTAGTGCAG,13400 fluorescence intensity (a.u.)
23,AATGTATTTGTCTTATGTTAAATATATTACTACTCTTTTTCGGAGTCACCTAGTGCAG,8080 fluorescence intensity (a.u.)
24,TACATGTTTTATAGAGAGCACCTTACTTTATCATTGCGGGCGGAGTCACCTAGTGCAG,9390 fluorescence intensity (a.u.)
25,TTGTGGCCGTTACTCCAACCCTATCATACATGCGGAATATCGGAGTCACCTAGTGCAG,9880 fluorescence intensity (a.u.)
26,ACTAACCCTAGCTCGCCTGGCGCCTCCTCGCGCAAACCCTCGGAGTCACCTAGTGCAG,10300 fluorescence intensity (a.u.)
27,CCTCTTGTGTCTATCCATCAACATTGAACAAAGTTGTCCTCGGAGTCACCTAGTGCAG,8630 fluorescence intensity (a.u.)

# Part of the list above in another layout.
row | Sequence | binding signal
11 | CCCACTTCTCTCTCAATCTCTCTCTCTGCTAGGGTTTATCCGGAGTCACCTAGTGCAG | 9900 fluorescence intensity (a.u.)
12 | CCCCGTCCACAGCCACGCCGCCGAGCCATGCTGTGCATCTCGGAGTCACCTAGTGCAG | 8080 fluorescence intensity (a.u.)
13 | TGGTTAGGCCAGTAATCAGTACTCCGTTATATCATCGACCCGGAGTCACCTAGTGCAG | 9300 fluorescence intensity (a.u.)
14 | TCTCCTCCTACGTTCTACTGGACTTGTGCTGCGAGGGGAGCGGAGTCACCTAGTGCAG | 9790 fluorescence intensity (a.u.)
15 | TTCTGACAATCCGACAAGCTGCCCGTGCTCTACTTGCAATCGGAGTCACCTAGTGCAG | 8500 fluorescence intensity (a.u.)
16 | CTTGGGCCTGGGTTGGACACGCGCTTCCTCTCCCAATTTGCGGAGTCACCTAGTGCAG | 9260 fluorescence intensity (a.u.)
17 | CTTTGTTCAAACGAGGTTTGGACTGTTGTGGTTCATTAAACGGAGTCACCTAGTGCAG | 10000 fluorescence intensity (a.u.)
18 | TTCCGTTTCTGTTCCGTTTGGTTTTTCCTTGTTCTTTCGGCGGAGTCACCTAGTGCAG | 12900 fluorescence intensity (a.u.)
19 | CAATATCCATCGTGCACTGACGAAACCAGCTGCATTCTGCCGGAGTCACCTAGTGCAG | 11100 fluorescence intensity (a.u.)
20 | ATTTCTTGAACAGTTAAATACTTATAAATCCTTCACTTTTCGGAGTCACCTAGTGCAG | 8050 fluorescence intensity (a.u.)
21 | CTATTTACACGGTCATATAGAGTTTTGGATCCATCATCATCGGAGTCACCTAGTGCAG | 8370 fluorescence intensity (a.u.)
22 | GTTTATGACCAGTCAATTTCGTGCCTGTTTTTTTTTTTTTCGGAGTCACCTAGTGCAG | 13400 fluorescence intensity (a.u.)
23 | AATGTATTTGTCTTATGTTAAATATATTACTACTCTTTTTCGGAGTCACCTAGTGCAG | 8080 fluorescence intensity (a.u.)
24 | TACATGTTTTATAGAGAGCACCTTACTTTATCATTGCGGGCGGAGTCACCTAGTGCAG | 9390 fluorescence intensity (a.u.)

# Continuation:

row,Sequence,binding signal
1,ATGGGGTCTTCAGTTATTTTAGAAGTGGAAATTTTATAGTCGGAGTCACCTAGTGCAG,8250 fluorescence intensity (a.u.)
2,TCATCATCATCGTCGTCGTCATCGTCTTCTTGAGCAAACTCGGAGTCACCTAGTGCAG,8610 fluorescence intensity (a.u.)
3,CCGTTTTAAAATGTTTGACACCGTTGACTTTTTAGTACATCGGAGTCACCTAGTGCAG,26100 fluorescence intensity (a.u.)
4,ACTGTGGTTTCTAGTGGGTTTTATTATTTTATAATTTGTACGGAGTCACCTAGTGCAG,8480 fluorescence intensity (a.u.)
5,GCCCAACGCGCTCCAACTCGCCGTCAACGACCACCTTGGTCGGAGTCACCTAGTGCAG,8510 fluorescence intensity (a.u.)
6,CGCACGGTTGGGTTGGTTTCCTCTTCTTCGCTCTTGAGAGCGGAGTCACCTAGTGCAG,9390 fluorescence intensity (a.u.)
7,ACCGCCTCCATCCATCCGCCGCGTCTCGCCGCCGGCCGCACGGAGTCACCTAGTGCAG,9000 fluorescence intensity (a.u.)
8,AATCCGCGCTAATCACCCACTAATACTCTTGTTTAATCACCGGAGTCACCTAGTGCAG,8870 fluorescence intensity (a.u.)
9,GTGGGTGTTTTTGATTGGAGAATCTGAGCGGCGAGTAGTGCGGAGTCACCTAGTGCAG,8180 fluorescence intensity (a.u.)
10,CTGCTCTTTTCATTTACAAATCATGTCCTCATGTTGCAGTCGGAGTCACCTAGTGCAG,8360 fluorescence intensity (a.u.)
11,TCTTATTTGACCATGATGTTTGTAAGGTGCATGTTCTGGTCGGAGTCACCTAGTGCAG,8540 fluorescence intensity (a.u.)
12,AAACTCCTTGCAAACTGATTATTTTACACTGCATCATACTCGGAGTCACCTAGTGCAG,9140 fluorescence intensity (a.u.)
13,CCATCCTAGTTGTGACAAACATTACACTTTTCTCATGTAACGGAGTCACCTAGTGCAG,8050 fluorescence intensity (a.u.)
14,TCTCCCTTTGACTGGACCATGGACTGCAACAAGCAACAACCGGAGTCACCTAGTGCAG,8260 fluorescence intensity (a.u.)
15,CCTTTGCCTCGCCATCCTGCTGCTCGTGCCCCTCCGCCCACGGAGTCACCTAGTGCAG,10900 fluorescence intensity (a.u.)
16,CTTTCTCCGTCCGTCCATTGTCACTTGCATCATCGTCGTACGGAGTCACCTAGTGCAG,13900 fluorescence intensity (a.u.)
17,CAACGCCAAGACGAGTGGCGGCTGAACAGGGGAGGGGCGGCGGAGTCACCTAGTGCAG,9970 fluorescence intensity (a.u.)
18,CACACAGCATCGTTTGGATTAATCACCGAACCGATCGACCCGGAGTCACCTAGTGCAG,8400 fluorescence intensity (a.u.)
19,ACAGTGACTCTTTTGTATATTATTCTGAAGTCCTCTGACTCGGAGTCACCTAGTGCAG,9230 fluorescence intensity (a.u.)
20,TCTTATCACATTATCACCATTCGATTGTCTTTATATCATTCGGAGTCACCTAGTGCAG,9960 fluorescence intensity (a.u.)
21,CAAATTATGAGCCTGTTCACTTTGATGCTCTTTTCAACCACGGAGTCACCTAGTGCAG,8320 fluorescence intensity (a.u.)
22,TGCACTACTGTTTCTTTTTTCCTTCGATTATTGGCACGGACGGAGTCACCTAGTGCAG,13900 fluorescence intensity (a.u.)
23,ACCCACACACCGACAGCACCAACACACAGGTCCAGAAGAACGGAGTCACCTAGTGCAG,10400 fluorescence intensity (a.u.)
24,TCACGCGTCTTCCATTCTTGAACACCACCACCCCGAGCTACGGAGTCACCTAGTGCAG,8310 fluorescence intensity (a.u.)
25,TGTCTCTATGAACGTCCTTGTATTTTGCTCATGATTTAATCGGAGTCACCTAGTGCAG,10300 fluorescence intensity (a.u.)
26,TCCCGTACCGCTCCATCCGCGACCTCTCCCGGCGGTACGGCGGAGTCACCTAGTGCAG,8920 fluorescence intensity (a.u.)
27,CGGCTTCATCTCATCGAGCTCGACCGACCGACGCGCACATCGGAGTCACCTAGTGCAG,9070 fluorescence intensity (a.u.)
